Values from PubChem BioAssay AID686943 (Drosophila RNAi Screening Center, 2013).
The deposit covers about 23,000 reagents; this is an unselected part of those that have a named target and a result. 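Extra replicates exist only for a retested subset of genes; insulin dose and duration not given; both raised and lowered dpERK matter.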 The numbers tell different reagents against one gene apart. The record does not give: the amount of reagent, the time to read-out.

- Screen: 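Search across the genome for regulators of signalling from receptor tyrosine kinase to ERK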 (primary screen)
- Cells: Drosophila S2R+ haemocyte-like cells expressing YFP-tagged ERK (Rolled)
- Knock-down reagent: long dsRNA against Drosophila genes
- Challenge: insulin stimulation versus unstimulated cells; dose and duration not given
- Detection: 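Antibody staining for doubly phosphorylated ERK divided by ERK-YFP signal, as plate z-scores, in insulin-treated and untreated cells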
- Reading the numbers: replicate 1, z-score of dpERK with insulin and replicate 2, z-score of dpERK with insulin: higher = more active ERK per ERK-YFP after insulin; replicate 1, z-score of dpERK under basal conditions: higher = more basal active ERK per ERK-YFP; replicate 1, z-score of ERK-YFP with insulin: higher = more YFP-tagged ERK signal

gene	dsRNA no.	replicate 1, z-score of dpERK with insulin	replicate 2, z-score of dpERK with insulin	replicate 1, z-score of dpERK under basal conditions	replicate 1, z-score of ERK-YFP with insulin
CG6503	1	0.41	-1.85	1.23	0.28
Cyp313a4	1	0.44	1.1	0.37	-0.39
CG7423	1	1.15	-0.32	0.87	0.46
alphaKap4	1	0.46	-0.26	0.19	0.06
CG4835	1	-2.39	-0.03	-0.07	-0.27
CCDC151	1	-0.27	-0.09	-0.1	0.81
inaF-B	1	0.83	0.44	0.26	-0.06
Eo	1	-1.57	0.73	0	0.94
Mesh1	1	0.04	0	-0.79	0.35
pb	1	0.05	-0.85	0.93	0.21
pb	2	-0.28	0.33	-0.2	0.84
Ir52b	1	-0.29	0.37	1.31	1.14
CG31064	1	-0.94	-0.03	-0.29	0.61
CG31064	2	-0.47	0.05	-0.5	1.18
CG31064	3	0.81	-0.16	-0.62	0.2
CG31064	4	-1.2	0.1	-0.04	-0.99
Srrm234	1	0.43	0.14	-0.52	-0.45
Srrm234	2	0.03	-0.27	0.17	0.28
tws	1	1.42	0.63	0.09	-0.74
tws	2	-1.9	-1.05	-1.19	2.67
CG15322	1	-0.33	-3.72	-0.98	1.97
ClC-c	1	-0.93	-0.23	0.88	1.83
Vps60	1	0.03	0.97	0.24	-0.78
CG34328	1	0.24	0.39	0.5	0.26
CG14607	1	1.06	0.66	1.75	-1.47
Gycalpha99B	1	-0.11	-0.6	0.69	-0.5
PIG-Q	1	-0.46	-1.6	-0.92	0.1
pinta	1	-0.08	0.92	-0.56	0.22
Tsp42Eo	1	-1.55	0.1	-0.37	-0.45
CG11630	1	-1	-0.55	0.06	0.73
Ir92a	1	0.26	-2.52	-0.71	-0.11
CG7460	1	-0.21	0.91	0.26	0.11
brp	1	0.01	0.09	-0.12	-0.73
brp	2	-0.66	-0.36	0.81	0.26
brp	3	0.75	0.54	0.47	-0.34
brp	4	1.41	1.03	0.81	-0.11
fw	1	0.86	0.3	-0.13	0.24
CG10469	1	0.14	0.22	0.61	0.14
Tbc1d15-17	1	0.77	1.02	0.22	-0.26
Eig71Eg	1	0.57	-0.09	0.91	-0.18
Ptp36E	1	0.07	0.88	-0.67	0.93
jet	1	0.81	-0.24	-0.04	-0.01
Eip75B	1	0.8	-0.05	-0.18	-0.33
Eip75B	2	-2.43	-2.46	-2.08	-1.97
Ugt35D1	1	-0.38	-0.65	-1.02	0.07
CG18649	1	0.55	3.26	1.75	-3.46
SPoCk	1	-0.17	0.15	1.1	0.44
SPoCk	2	-0.96	-1.84	0.56	0.62
SPoCk	3	-0.02	0.79	0.95	-0.42
SPoCk	4	-0.13	1.52	-0.57	0.13
CG8665	1	-0.21	-0.1	-1.67	0.61
Sema1a	1	0.08	-0.4	-1.18	0.16
CAH5	1	0.52	0	0.02	-0.56
CG1143	1	0.4	0.81	0.4	-0.71
CG5819	1	1.01	0.51	0.35	-0.64
CG12009	1	-0.25	-0.4	-0.01	0.95
NUCB1	1	2.71	-0.31	-0.96	-0.15
